Patent US20150025016A1 (COMMISSARIAT A L ENERGIE ATOMIQUE ET AUX ENERGIES …, published 2015)
These are yes or no findings as the source states them, for the method shown. Some entries that bind do so weakly or less than the wild type. For some assays here: Sequences can lack the tags named with a protein.

Sequences of proteins named here, by UniProt entry; tags and fusion partners are left off. Residues count along the entry.
UniProt Q9Y294, residues 1-156: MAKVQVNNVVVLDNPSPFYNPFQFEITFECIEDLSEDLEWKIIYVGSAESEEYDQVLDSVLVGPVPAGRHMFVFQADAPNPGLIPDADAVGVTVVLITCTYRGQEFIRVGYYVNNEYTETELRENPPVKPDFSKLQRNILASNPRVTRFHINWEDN

Key:
[1] = biological target: Asf1 (1-156), conserved N-terminal domain of human Asf1 (human) (UniProt Q9Y294); assay: NMR structure of the complex
[2] = biological target: Asf1 (1-156), conserved N-terminal domain of human Asf1 (human) (UniProt Q9Y294); assay: X-ray crystallography of the complex
[3] = biological target: Asf1 (1-156), conserved N-terminal domain of human Asf1 (human) (UniProt Q9Y294); assay: crystal structure of the complex
[4] = biological target: Asf1 (1-156), conserved N-terminal domain of human Asf1 (human) (UniProt Q9Y294); assay: ITC (microcalorimetry)

Binder | binding [4] | also measured
GAMGTIMPKDIQLARRIRG (The N-terminal GAMG comes from the cloning vector) [peptide i1 (fragment of histone H3, α3 helix)] |  | binding [1]: binds
GAMGTLTPKEAELARRIRGAGGRTLNGFG [inhibitor peptide Asf1/H3-H4, peptide i4] |  | binding [2]: binds; binding [3]: binds
ASTERKWAELARRIAGAGGVTLNGFG [Peptide i5_Aloop] | binds | 
ASTERKWAELARRIRGAGGRTLNGFG [Peptide i5_loopR] | binds | 
ASTERKWAELARRIRGAGGATLNGFG [Peptide i5_loopA] | binds | 

Now from value to binder, other results behind:

binding [4] | Binder | also measured
binds | ASTEEKWARLARRIRGAGGVTLNGFG [Peptide i5_s3] | 
binds | ASTERKWAELARRIRGAGGVTLDGFG [Peptide i5_D] | 
